According to article PMC4521722:
Results are given in words; binding and its absence hold for the method and conditions named. Binding seen in cells or lysates may run through a third protein. Some entries that bind do so weakly or less than the wild type. Where a sequence is shown, tags or fusion partners need not be part of it.

Protein sequences, listed by entry. Tags and fused reporters are not part of them.
UniProt P27323: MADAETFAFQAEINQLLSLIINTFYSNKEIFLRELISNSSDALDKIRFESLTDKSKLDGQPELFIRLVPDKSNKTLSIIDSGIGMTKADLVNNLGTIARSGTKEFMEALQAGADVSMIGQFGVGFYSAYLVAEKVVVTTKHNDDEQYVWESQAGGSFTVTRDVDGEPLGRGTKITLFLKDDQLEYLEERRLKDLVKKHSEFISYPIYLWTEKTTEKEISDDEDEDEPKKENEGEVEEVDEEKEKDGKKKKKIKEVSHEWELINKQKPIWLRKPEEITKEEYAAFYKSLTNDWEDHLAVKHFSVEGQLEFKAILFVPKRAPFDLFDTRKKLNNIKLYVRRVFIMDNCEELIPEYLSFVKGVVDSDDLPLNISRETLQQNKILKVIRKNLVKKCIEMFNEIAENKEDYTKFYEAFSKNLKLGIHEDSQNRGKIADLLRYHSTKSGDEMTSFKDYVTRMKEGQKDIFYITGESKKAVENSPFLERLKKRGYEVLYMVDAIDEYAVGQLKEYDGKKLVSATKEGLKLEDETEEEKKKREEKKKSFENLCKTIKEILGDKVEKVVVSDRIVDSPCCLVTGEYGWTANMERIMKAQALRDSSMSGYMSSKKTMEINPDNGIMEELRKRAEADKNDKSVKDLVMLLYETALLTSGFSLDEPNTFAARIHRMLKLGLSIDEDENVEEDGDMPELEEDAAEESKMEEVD

Molecular target: T1, AtPolλ-C-TAP (Arabidopsis thaliana DNA polymerase λ with a C-terminal TAP tag) (Arabidopsis thaliana) (UniProt Q9FNY4)
T1 sequence: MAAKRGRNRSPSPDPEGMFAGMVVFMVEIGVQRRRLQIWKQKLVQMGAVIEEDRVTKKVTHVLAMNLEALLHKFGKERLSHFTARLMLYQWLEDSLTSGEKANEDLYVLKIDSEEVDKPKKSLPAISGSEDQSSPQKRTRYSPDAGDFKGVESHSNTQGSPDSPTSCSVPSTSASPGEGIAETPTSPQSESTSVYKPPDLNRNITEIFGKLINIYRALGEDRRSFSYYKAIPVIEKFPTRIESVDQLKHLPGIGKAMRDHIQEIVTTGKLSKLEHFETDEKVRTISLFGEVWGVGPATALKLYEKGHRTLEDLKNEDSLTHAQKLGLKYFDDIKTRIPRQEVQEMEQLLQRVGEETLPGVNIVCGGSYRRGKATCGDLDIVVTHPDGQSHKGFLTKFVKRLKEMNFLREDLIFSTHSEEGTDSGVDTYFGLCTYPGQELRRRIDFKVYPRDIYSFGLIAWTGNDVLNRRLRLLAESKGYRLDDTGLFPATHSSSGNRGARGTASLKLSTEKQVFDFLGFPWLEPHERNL
Assay: co-IP; leaves of Agro-infiltrated N. benthamiana co-expressing AtPolλ-C-TAP and AtHSP90.1-C-TAP, cross-linked with 1% formaldehyde; extract immunoprecipitated with affinity purified anti-AtPolλ polyclonal antibody, probed with anti-HSP90 antibody (1:500)

## AtHSP90.1-C-TAP (Arabidopsis thaliana HSP90.1 with a C-terminal TAP tag) (from UniProt P27323 1-700)
  binding: binds
